First the molecules themselves.
B1: Tim17a (endogenous, mouse forebrain mitochondria) (other, UniProt Q9Z0V8 1-171, looked up)
chain: MEEYAREPCPWRIVDDCGGAFTMGTIGGGIFQAFKGFRNSPVGINHRLRGSLTAIKTRAPQLGGSFAVWGGLFSTIDCSMVQIRGKEDPWNSITSGALTGAILAARNGPVAMVGSAAMGGILLALIEGAGILLTRFASAQFPNGPQFTEDHSQLPSSQLPSSPFGDYRQYQ
notes: also called Timm17a
B2: Dnajc19_IPI:IPI00111111.5 (other, mouse, UniProt Q9CQV7 2-116, looked up)
chain: ASTVVAVGLTIAAAGFAGRYVLQAMKHVEPQVKQVFQSLPKSAFGGGYYRGGFEPKMTKREAALILGVSPTANKGKIRDAHRRIMLLNHPDKGGSPYIAAKINEAKDLLEGQAKK
B3: Timm17b_IPI:IPI00129504.1 (other, mouse, UniProt Q9Z0V7 1-172, looked up)
chain: MEEYAREPCPWRIVDDCGGAFTMGVIGGGVFQAIKGFRNAPVGIRHRFRGSVNAVRIRAPQIGGSFAVWGGLFSTIDCGLVRLRGKEDPWNSISSGALTGAVLAARSGPLAMVGSAMMGGILLALIEGVGILLTRYTAQQFRNAPPFLEDPSQLTPKEGSPAPGYPNYQQYH
notes: Endogenous protein

The assay deals with T1, GST alone (UniProt P08515 1-218 = GST).
T1 construct: Negative control of the pull-downs; also called control GST
Briefly: GST pull-down, LC-MS/MS. How it is done:
Extracts were spun at 14,000 r.p.m. at 4° C., and clarified supernatants were incubated with glutathione 4B Sepharose beads (GE Healthcare) at 4° C. overnight. The glutathione beads were then washed extensively with ice-cold TNE buffer, and bound proteins were subjected to SDS-PAGE followed by immunoblotting analysis. For the samples subjected to mass spectrometry, glutathione bead-bound proteins from equal amounts (600 μg) of mitochondria were further washed with high stringency RIPA buffer following TNE buffer wash to decrease nonspecific interaction. Proteins were then eluted from the glutathione beads in SDS sample buffer, separated by SDS-PAGE and stained with Coomassie. Proteins in the gel were digested with trypsin and analyzed by mass spectrometry (LC-MS/MS) at the Taplin Biological Mass Spectrometry Facility (Harvard Medical School, Boston, Mass.).
With B1, the binding result is “no binding”.
Consider B2, for which the binding result is “no binding”.
For the molecule B3, the binding result is listed as “no binding”.
